This is an account of results in publication PMC3017772, “The CaaX specificities of Arabidopsis protein prenyltransferases explain era1 and ggb phenotypes” (BMC Plant Biology, 2010).

Amino acid sequences for entries named in this document (tags omitted).
UniProt Q9LX33: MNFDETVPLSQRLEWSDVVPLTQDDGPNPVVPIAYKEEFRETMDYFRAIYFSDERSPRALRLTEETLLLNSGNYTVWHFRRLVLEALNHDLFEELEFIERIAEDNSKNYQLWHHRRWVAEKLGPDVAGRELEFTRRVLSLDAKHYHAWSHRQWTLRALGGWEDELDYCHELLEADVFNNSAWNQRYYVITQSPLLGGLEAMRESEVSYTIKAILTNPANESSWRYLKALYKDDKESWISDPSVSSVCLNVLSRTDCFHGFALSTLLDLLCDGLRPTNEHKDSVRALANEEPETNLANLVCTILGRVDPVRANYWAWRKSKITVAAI

This assay concerns the target T1, ENHANCED RESPONSE TO ABA1 (ERA1), beta-subunit of PFT, with amino terminal 6xHis tag (Arabidopsis (ecotype Col-0)) (UniProt Q38920).
T1 sequence: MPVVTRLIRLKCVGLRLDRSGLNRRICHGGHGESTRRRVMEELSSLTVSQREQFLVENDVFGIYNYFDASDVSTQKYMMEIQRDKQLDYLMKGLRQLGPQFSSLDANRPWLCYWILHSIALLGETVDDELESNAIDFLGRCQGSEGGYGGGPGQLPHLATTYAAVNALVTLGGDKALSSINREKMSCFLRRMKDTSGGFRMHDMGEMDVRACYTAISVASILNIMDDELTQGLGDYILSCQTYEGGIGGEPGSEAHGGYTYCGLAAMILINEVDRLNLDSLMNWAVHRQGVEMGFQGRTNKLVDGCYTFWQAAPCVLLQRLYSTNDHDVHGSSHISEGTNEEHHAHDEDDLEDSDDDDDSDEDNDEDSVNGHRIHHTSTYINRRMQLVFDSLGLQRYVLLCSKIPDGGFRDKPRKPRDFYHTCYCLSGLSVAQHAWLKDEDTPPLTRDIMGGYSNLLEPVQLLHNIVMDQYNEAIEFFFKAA
The assay is described as follows: co-purification by immobilized metal affinity chromatography; FLAG-tagged alpha-subunit and 6xHis-tagged beta-subunit co-expressed in E. coli; extract on Talon Co2+ resin at 4°C, 50 mM sodium phosphate pH 7.0, 0.3 M NaCl; the purified enzyme was then assayed for prenyltransferase activity.

No constants are given. Whether binding was seen depends on the method and setting. Some entries that bind do so weakly or less than the wild type. Where a sequence is shown, tags or fusion partners need not be part of it.

On to “PLURIPETALA (PLP), common alpha-subunit of PFT and PGGT1, with amino terminal FLAG tag (from UniProt Q9LX33 1-326)”, for which the binding entry is “binds”.
